Reference: PubChem BioAssay AID504784 (Drosophila RNAi Screening Center, 2011)
In all, the deposit lists about 17,000 reagents; shown is a random part of those with a known target gene and a result. 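Each column is one replicate's B-score; the combined score over replicates was not deposited, so single values may mislead.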 Names joined by + are all predicted targets of the reagent. Not all columns of the deposit are shown.

Screen: 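Fly genes whose silencing alters how much lipid cells keep in droplets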 (primary screen)
System: Drosophila Kc167 embryonic cells
Reagent: long dsRNA against Drosophila genes, about 250 ng dsRNA per well
Time to read-out: 4 days
Conditions: cells fed 400 µM oleic acid bound to BSA
Measured: 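Microscope images give a droplet-to-nucleus area ratio, taken as log and converted to a screen-wide B-score; higher values mean greater lipid storage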
Reading the numbers: droplet/nuclear area B-score: higher = more stored lipid (overstorage)

gene,amplicon,"droplet/nuclear area B-score, replicate 1","droplet/nuclear area B-score, replicate 2"
TAF1C-like,DRSC04073,0.666,-1.08
crm,DRSC18754,-2.29,0.688
CG31870,DRSC21681,0.379,-3.46
Muc26B,DRSC02322,0.312,0.488
Cog8,DRSC02961,0.0391,0.145
Cdc37,DRSC08648,0.736,1.01
CG3199,DRSC15467,2.17,1.16
CG14567,DRSC11728,0.414,0.543
mRpL47,DRSC16827,2.17,0.921
Sin3A,DRSC07552,0.169,0.528
s-cup,DRSC06277,0.0409,-0.144
s-cup,DRSC06278,-1.53,-0.674
fusl,DRSC02351,-2.02,0.683
Sf3b3,DRSC08370,1.86,0.0807
CG4928,DRSC19342,-1.07,0.53
CG32821 (retired record),DRSC22544,-0.658,-0.0314
msl-1,DRSC03573,-1.55,0.561
lobo,DRSC14662,0.584,0.223
lobo,DRSC14663,0.152,-0.428
Dph5,DRSC16653,0.223,-0.716
rpk,DRSC12386,1.14,0.00271
rpk,DRSC21656,-0.759,0.0345
Mur2B,DRSC18545,1.9,0.0858
Mur2B,DRSC18546,-0.0975,0.205
CG8138,DRSC16386,-0.0232,-0.227
snoRNA:Me28S-C3420b + RpS11,DRSC07396,1.34,-1.46
CG32263,DRSC22431,-0.0317,0.149
CG3760,DRSC04415,2.78,4.03
CG42809 + CG42810,DRSC02532,0.185,-0.443
CG42809 + CG42810,DRSC02533,-2.58,-0.399
Xrp1,DRSC15282,-1.2,-0.344
Xrp1,DRSC15283,0.631,-1.73
CG8891,DRSC03120,-2.74,-0.106
Las,DRSC11772,-1.39,1.74

2 entries from above, sorted by “droplet/nuclear area B-score, replicate 1”, highest first.
gene,amplicon,"droplet/nuclear area B-score, replicate 1","droplet/nuclear area B-score, replicate 2"
mRpL47,DRSC16827,2.17,0.921
Sin3A,DRSC07552,0.169,0.528
